All values are for the listed drug together with docetaxel (0.0005 µM): CC(=O)O[C@@]12CO[C@@H]1C[C@H](O)[C@@]1(C)C(=O)[C@H](O)C3=C(C)[C@@H](OC(=O)[C@H](O)[C@@H](NC(=O)OC(C)(C)C)c4ccccc4)C[C@@](O)([C@@H](OC(=O)c4ccccc4)[C@H]21)C3(C)C

Drug key:
fingolimod, 10 µM: CCCCCCCCc1ccc(CCC(N)(CO)CO)cc1
MK-2206, 2 µM: NC1(c2ccc(-c3nc4ccn5c(=O)[nH]nc5c4cc3-c3ccccc3)cc2)CCC1
CX-4945, 2 µM: O=C(O)c1ccc2c(c1)nc(Nc1cccc(Cl)c1)c1ccncc12
vincristine, 0.0005 µM: CC[C@]1(O)C[C@H]2CN(CCc3c([nH]c4ccccc34)[C@@](C(=O)OC)(c3cc4c(cc3OC)N(C=O)[C@H]3[C@@](O)(C(=O)OC)[C@H](OC(C)=O)[C@]5(CC)C=CCN6CC[C@]43[C@@H]65)C2)C1
etoposide, 0.1 µM: COc1cc([C@@H]2c3cc4c(cc3[C@@H](O[C@@H]3O[C@@H]5CO[C@@H](C)O[C@H]5[C@H](O)[C@H]3O)[C@H]3COC(=O)[C@H]23)OCO4)cc(OC)c1O
pazopanib, 2 µM: Cc1ccc(Nc2nccc(N(C)c3ccc4c(C)n(C)nc4c3)n2)cc1S(N)(=O)=O
sunitinib, 2 µM: CCN(CC)CCNC(=O)c1c(C)[nH]c(/C=C2\C(=O)Nc3ccc(F)cc32)c1C
cediranib, 2 µM: COc1cc2c(Oc3ccc4[nH]c(C)cc4c3F)ncnc2cc1OCCCN1CCCC1
OSI-906, 2 µM: C[C@]1(O)C[C@@H](c2nc(-c3ccc4ccc(-c5ccccc5)nc4c3)c3c(N)nccn32)C1
SU6656, 2 µM: CN(C)S(=O)(=O)c1ccc2c(c1)/C(=C/c1cc3c([nH]1)CCCC3)C(=O)N2
FK866, 0.05 µM: O=C(/C=C/c1cccnc1)NCCCCC1CCN(C(=O)c2ccccc2)CC1
selumetinib, 0.075 µM: Cn1cnc2c(F)c(Nc3ccc(Br)cc3Cl)c(C(=O)NOCCO)cc21
stibogluconate, 10 µM: O=C(O)[C@@H]1[O][Sb](=[O])([O][Sb]2(=[O])[O][C@H]([C@H](O)CO)[C@H](O)[C@H](C(=O)O)[O]2)[O][C@H]([C@H](O)CO)[C@@H]1O (some centres unmarked)
dasatinib, 0.02 µM: Cc1nc(Nc2ncc(C(=O)Nc3c(C)cccc3Cl)s2)cc(N2CCN(CCO)CC2)n1
AZD7762, 0.1 µM: NC(=O)Nc1cc(-c2cccc(F)c2)sc1C(=O)N[C@H]1CCCNC1
BMS-536924, 1 µM: Cc1cc(N2CCOCC2)cc2[nH]c(-c3c(NC[C@@H](O)c4cccc(Cl)c4)cc[nH]c3=O)nc12
nilotinib, 1 µM: Cc1cn(-c2cc(NC(=O)c3ccc(C)c(Nc4nccc(-c5cccnc5)n4)c3)cc(C(F)(F)F)c2)cn1
tamatinib, 2 µM: COc1cc(Nc2ncc(F)c(Nc3ccc4c(n3)NC(=O)C(C)(C)O4)n2)cc(OC)c1OC
tozasertib, 0.03 µM: Cc1cc(Nc2cc(N3CCN(C)CC3)nc(Sc3ccc(NC(=O)C4CC4)cc3)n2)n[nH]1
lenalidomide, 5 µM: Nc1cccc2c1CN(C1CCC(=O)NC1=O)C2=O (centres unmarked)
perifosine, 2 µM: CCCCCCCCCCCCCCCCCCOP(=O)([O-])OC1CC[N+](C)(C)CC1
KU-0063794, 0.1 µM: COc1ccc(-c2ccc3c(N4CCOCC4)nc(N4C[C@@H](C)O[C@@H](C)C4)nc3n2)cc1CO
bortezomib, 0.005 µM: CC(C)C[C@H](NC(=O)[C@H](Cc1ccccc1)NC(=O)c1cnccn1)B(O)O
XAV939, 10 µM: Oc1nc(-c2ccc(C(F)(F)F)cc2)nc2c1CSCC2
STA-4783, 0.03 µM: CN(NC(=O)CC(=O)NN(C)C(=S)c1ccccc1)C(=S)c1ccccc1
AS-252424, 5 µM: O=C1NC(=O)/C(=C/c2ccc(-c3ccc(F)cc3O)o2)S1
gemcitabine, 0.002 µM: Nc1ccn([C@@H]2O[C@H](CO)[C@@H](O)C2(F)F)c(=O)n1
YM155, 0.002 µM: COCC[n+]1c2c(n(Cc3cnccn3)c1C)C(=O)c1ccccc1C2=O
JZL184, 5 µM: O=C(Oc1ccc([N+](=O)[O-])cc1)N1CCC(C(O)(c2ccc3c(c2)OCO3)c2ccc3c(c2)OCO3)CC1
palbociclib, 0.2 µM: CC(=O)c1c(C)c2cnc(Nc3ccc(N4CCNCC4)cn3)nc2n(C2CCCC2)c1=O

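Human melanoma cell lines in 1,536-well plates were treated with a pair of drugs for 72 h, then fixed, stained and imaged. The read-out is the fraction of cleaved-PARP-positive nuclei, in % of that fraction in the DMSO control; 200 means twice the control level of this apoptosis marker. Concentrations were fixed for each drug; these are the higher of two levels. The file gives one value for each pair and line, without errors, so small differences may be noise. Basal and induced levels differ widely between cell lines.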
An unselected part of the screen is shown.
A dash means that no value is listed here.

| Partner | WM3526 | UACC-62 | WM1745 | A2058 | G-361 | WM451Lu | C32 | MeWo | IPC-298 | MZ2-MEL | 501mel | A101D |
|---|---|---|---|---|---|---|---|---|---|---|---|---|
| stibogluconate | 1630 | 377 | 269 | 2970 | 620 | 1050 | 584 | 1030 | 241 | 525 | - | 108 |
| XAV939 | 1500 | 536 | - | 2600 | 248 | 2240 | 114 | 840 | 501 | 659 | 400 | 254 |
| bortezomib | 4580 | 358 | 457 | 2150 | 8530 | 300 | 1370 | 2990 | 13000 | - | - | 276 |
| FK866 | 2050 | 389 | 513 | 2980 | 7820 | 401 | 430 | 632 | 2620 | 2210 | - | 140 |
| pazopanib | 1270 | 285 | 313 | 785 | 691 | 444 | 188 | 896 | 135 | 475 | - | 132 |
| etoposide | 1360 | 224 | 158 | 1700 | 1110 | 351 | 260 | 563 | 276 | 305 | - | 118 |
| MK-2206 | 1470 | 342 | 259 | 2650 | 677 | 1100 | 809 | 1040 | 1050 | 619 | - | 428 |
| vincristine | 1550 | 520 | 543 | 1370 | 789 | 400 | 193 | 735 | 1090 | - | - | 142 |
| tamatinib | 2770 | 221 | 485 | 3040 | 1090 | 644 | 1560 | 842 | 1100 | 638 | - | 427 |
| selumetinib | 1260 | 303 | 190 | 1220 | 823 | 233 | 991 | 655 | 305 | 848 | - | 102 |
| nilotinib | 2130 | 554 | 346 | 1980 | 910 | 516 | 143 | 735 | 465 | 703 | - | 139 |
| fingolimod | 871 | 374 | 3320 | 2580 | 6940 | 7400 | 875 | 416 | 487 | 2230 | - | 512 |
| cediranib | 3490 | 204 | 237 | 3640 | 1080 | 455 | 850 | 1660 | 546 | 723 | - | 84.9 |
| AZD7762 | 4130 | 159 | 232 | 1620 | 563 | 1450 | 2690 | 558 | 1270 | 1680 | - | 173 |
| JZL184 | 1210 | 662 | - | 2790 | 891 | 1700 | 119 | 681 | 139 | 704 | 202 | 116 |
| KU-0063794 | 1430 | 793 | - | 5600 | 974 | 2820 | 136 | 876 | 703 | 906 | 431 | 256 |
| dasatinib | 1220 | 365 | 728 | 1540 | 1160 | 459 | 1220 | 842 | 582 | 1380 | - | 196 |
| OSI-906 | 1990 | 407 | 287 | 2760 | 1520 | 606 | 1900 | 1410 | 967 | 1260 | - | 133 |
| gemcitabine | 639 | 231 | 217 | 1720 | 1300 | 577 | 570 | 209 | 357 | 730 | - | 179 |
| tozasertib | 1570 | 377 | 167 | 2040 | 1460 | 579 | 1260 | 355 | 592 | 336 | - | 138 |
| lenalidomide | 2540 | 305 | 169 | 2160 | 515 | 492 | 289 | 1350 | 429 | 623 | - | 274 |
| perifosine | 1250 | 174 | 196 | 1590 | 698 | 499 | 295 | 593 | 317 | 696 | - | 140 |
| YM155 | 1620 | 236 | 212 | 1590 | 863 | 1760 | 827 | 499 | 726 | 331 | - | 151 |
| palbociclib | 711 | 353 | 192 | 1400 | 404 | 125 | 451 | 247 | 342 | 656 | - | 116 |
| BMS-536924 | 1140 | 215 | 258 | 3330 | 1290 | 863 | 1580 | 1350 | 635 | 1390 | - | 252 |
| STA-4783 | 1760 | 180 | 378 | 4140 | 1360 | 571 | 3450 | 3780 | 292 | 542 | - | 355 |
| AS-252424 | 812 | 214 | - | 1440 | 387 | 168 | 119 | 1410 | 450 | 671 | 219 | 317 |
| CX-4945 | 2360 | 537 | 389 | 1770 | 830 | 359 | 899 | 647 | 554 | - | - | 168 |
| SU6656 | 818 | 201 | 207 | 2080 | 1010 | 207 | 147 | 535 | 642 | 1510 | - | 69.2 |
| sunitinib | 1360 | 288 | 219 | 1310 | 1060 | 153 | 32.6 | 384 | 1100 | 1120 | - | 123 |

Source: doi:10.1371/journal.pone.0140310, primary screening data, rounded.